The results in this text go back to patent US20240327477A1, “COMPOSITIONS AND METHODS FOR THE TREATMENT OF TDP-43 PROTEINOPATHIES” (SOLA BIOSCIENCES LLC, priority 2020, published 2024).

The format of this data set is in vivo, mouse. The settings on record: C57BL/6J mice.

Regarding “Construct 3: DnaJB1 J domain fused to scFv(3B12A)”, under “AAV rh10, ICV, cerebrum extracts”, the “expression 8 weeks after ICV injection compared with 3 weeks” value was “significantly higher”. For the same substance, the “expression of Construct 3 in cerebrum extracts (immunoblot)” value (AAV rh10, intrathecal or ICV injection, no detection in control mice (FIG. 15)) was “resulted in expression”.
